The supplement of paper PMC10849652
Some of the results follow.

Protein sequences, listed by entry. Tags and fused reporters are not part of them. Lines headed by an entry give the natural chain unless they say otherwise; changes in a name come on top.
UniProt Q3L8U1: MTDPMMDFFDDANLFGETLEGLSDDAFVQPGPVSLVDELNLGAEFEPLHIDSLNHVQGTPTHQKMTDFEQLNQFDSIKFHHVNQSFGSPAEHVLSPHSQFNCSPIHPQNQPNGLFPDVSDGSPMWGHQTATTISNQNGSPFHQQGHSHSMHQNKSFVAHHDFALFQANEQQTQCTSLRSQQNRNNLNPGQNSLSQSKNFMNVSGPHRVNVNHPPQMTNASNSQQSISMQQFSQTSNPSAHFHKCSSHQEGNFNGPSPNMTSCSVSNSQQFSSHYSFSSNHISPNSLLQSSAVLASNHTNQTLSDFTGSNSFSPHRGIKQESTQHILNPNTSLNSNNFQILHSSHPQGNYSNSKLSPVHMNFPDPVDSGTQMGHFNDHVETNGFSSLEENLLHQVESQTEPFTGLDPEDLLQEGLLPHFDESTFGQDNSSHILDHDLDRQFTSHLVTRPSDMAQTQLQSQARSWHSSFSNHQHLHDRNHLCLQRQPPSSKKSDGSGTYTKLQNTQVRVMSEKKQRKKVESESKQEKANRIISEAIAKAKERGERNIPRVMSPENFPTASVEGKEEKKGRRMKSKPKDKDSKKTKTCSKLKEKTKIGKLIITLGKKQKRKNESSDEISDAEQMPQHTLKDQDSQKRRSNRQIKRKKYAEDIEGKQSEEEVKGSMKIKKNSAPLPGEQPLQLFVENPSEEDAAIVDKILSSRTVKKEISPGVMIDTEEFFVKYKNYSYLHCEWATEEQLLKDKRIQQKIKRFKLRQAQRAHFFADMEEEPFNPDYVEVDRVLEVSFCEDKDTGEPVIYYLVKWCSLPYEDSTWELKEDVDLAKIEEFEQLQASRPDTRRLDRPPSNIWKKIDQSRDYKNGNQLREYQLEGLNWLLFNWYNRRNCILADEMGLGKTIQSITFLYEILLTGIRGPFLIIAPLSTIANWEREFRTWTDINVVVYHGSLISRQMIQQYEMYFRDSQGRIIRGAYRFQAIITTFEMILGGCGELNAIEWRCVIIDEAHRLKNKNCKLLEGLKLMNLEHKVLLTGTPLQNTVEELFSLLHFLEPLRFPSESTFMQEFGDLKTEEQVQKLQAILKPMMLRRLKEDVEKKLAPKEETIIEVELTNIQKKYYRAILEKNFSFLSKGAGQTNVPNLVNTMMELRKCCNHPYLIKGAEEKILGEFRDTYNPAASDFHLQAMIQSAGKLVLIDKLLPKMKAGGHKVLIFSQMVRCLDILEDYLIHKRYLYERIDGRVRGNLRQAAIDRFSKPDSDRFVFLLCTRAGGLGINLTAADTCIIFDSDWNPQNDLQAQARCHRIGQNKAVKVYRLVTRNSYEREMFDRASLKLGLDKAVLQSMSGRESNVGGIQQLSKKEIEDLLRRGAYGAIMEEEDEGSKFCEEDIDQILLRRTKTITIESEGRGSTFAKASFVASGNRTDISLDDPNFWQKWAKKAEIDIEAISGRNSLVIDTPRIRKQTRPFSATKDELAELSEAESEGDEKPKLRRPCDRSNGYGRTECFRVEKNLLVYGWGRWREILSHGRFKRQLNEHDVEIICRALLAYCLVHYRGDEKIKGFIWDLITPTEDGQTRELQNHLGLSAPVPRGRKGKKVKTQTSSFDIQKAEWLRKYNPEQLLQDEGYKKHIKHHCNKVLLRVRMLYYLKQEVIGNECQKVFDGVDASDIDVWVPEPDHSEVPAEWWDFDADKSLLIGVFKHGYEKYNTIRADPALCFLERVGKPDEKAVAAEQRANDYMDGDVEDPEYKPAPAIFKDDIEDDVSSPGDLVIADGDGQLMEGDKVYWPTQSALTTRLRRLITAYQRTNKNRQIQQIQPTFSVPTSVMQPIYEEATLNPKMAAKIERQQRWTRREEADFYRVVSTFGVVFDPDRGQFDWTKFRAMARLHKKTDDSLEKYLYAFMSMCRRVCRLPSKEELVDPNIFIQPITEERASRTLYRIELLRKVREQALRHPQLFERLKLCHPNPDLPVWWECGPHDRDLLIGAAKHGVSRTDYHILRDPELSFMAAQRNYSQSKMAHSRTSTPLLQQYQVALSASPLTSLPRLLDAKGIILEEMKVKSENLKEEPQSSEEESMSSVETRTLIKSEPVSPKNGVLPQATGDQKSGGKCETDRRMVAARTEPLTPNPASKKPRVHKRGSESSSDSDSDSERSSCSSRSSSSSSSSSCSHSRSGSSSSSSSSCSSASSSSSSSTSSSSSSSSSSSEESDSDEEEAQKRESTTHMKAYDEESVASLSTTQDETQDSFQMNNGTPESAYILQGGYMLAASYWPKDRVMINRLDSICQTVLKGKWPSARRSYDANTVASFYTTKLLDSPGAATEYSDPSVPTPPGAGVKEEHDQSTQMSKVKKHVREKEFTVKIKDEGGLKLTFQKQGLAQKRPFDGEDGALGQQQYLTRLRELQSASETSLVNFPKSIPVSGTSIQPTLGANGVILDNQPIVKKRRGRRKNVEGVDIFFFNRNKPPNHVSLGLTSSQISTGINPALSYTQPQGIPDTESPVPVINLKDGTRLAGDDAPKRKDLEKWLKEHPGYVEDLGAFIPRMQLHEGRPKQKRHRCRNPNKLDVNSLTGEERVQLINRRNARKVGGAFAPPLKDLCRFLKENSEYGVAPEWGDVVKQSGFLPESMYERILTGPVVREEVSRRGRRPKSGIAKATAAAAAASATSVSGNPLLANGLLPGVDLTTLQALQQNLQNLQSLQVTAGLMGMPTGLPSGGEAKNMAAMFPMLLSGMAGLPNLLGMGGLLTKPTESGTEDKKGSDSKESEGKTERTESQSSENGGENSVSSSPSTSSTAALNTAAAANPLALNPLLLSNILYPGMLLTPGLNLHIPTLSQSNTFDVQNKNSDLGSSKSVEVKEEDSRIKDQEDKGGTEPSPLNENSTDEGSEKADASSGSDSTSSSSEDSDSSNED
UniProt Q13286: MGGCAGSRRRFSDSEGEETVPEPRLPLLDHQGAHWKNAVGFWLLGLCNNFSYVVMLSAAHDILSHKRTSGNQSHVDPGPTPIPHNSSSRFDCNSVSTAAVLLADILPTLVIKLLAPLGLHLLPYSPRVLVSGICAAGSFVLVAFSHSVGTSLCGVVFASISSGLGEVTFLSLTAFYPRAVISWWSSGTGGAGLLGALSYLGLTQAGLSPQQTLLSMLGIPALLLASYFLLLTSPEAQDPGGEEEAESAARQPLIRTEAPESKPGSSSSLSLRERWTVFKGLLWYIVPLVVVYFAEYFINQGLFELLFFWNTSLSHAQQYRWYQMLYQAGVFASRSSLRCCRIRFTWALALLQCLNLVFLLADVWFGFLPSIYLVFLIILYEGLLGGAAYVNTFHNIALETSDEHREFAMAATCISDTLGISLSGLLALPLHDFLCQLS
UniProt P33552, whole entry, looked up: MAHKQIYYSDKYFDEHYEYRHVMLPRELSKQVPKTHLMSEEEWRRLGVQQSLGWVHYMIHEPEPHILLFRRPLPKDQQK
UniProt Q9BSY4: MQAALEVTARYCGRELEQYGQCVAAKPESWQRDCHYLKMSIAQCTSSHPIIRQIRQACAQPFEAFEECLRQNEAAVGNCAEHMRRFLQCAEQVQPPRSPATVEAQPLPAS
UniProt O75503: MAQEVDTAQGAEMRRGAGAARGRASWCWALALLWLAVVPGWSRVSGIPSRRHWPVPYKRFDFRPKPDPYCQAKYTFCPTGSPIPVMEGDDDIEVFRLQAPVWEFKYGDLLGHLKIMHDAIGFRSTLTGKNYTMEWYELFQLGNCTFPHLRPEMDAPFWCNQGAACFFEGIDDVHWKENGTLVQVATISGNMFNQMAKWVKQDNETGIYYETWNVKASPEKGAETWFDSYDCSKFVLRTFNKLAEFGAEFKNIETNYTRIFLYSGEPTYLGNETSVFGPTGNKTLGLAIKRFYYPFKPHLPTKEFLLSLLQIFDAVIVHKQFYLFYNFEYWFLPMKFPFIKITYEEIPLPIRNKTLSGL
UniProt Q99967: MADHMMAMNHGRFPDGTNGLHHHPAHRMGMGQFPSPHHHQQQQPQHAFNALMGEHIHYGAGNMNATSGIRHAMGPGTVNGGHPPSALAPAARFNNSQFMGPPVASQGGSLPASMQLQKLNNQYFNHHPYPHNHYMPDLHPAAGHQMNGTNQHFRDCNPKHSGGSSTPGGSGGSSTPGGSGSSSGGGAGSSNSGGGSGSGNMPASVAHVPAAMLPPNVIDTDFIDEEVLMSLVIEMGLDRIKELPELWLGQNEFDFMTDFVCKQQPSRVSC
UniProt O43529: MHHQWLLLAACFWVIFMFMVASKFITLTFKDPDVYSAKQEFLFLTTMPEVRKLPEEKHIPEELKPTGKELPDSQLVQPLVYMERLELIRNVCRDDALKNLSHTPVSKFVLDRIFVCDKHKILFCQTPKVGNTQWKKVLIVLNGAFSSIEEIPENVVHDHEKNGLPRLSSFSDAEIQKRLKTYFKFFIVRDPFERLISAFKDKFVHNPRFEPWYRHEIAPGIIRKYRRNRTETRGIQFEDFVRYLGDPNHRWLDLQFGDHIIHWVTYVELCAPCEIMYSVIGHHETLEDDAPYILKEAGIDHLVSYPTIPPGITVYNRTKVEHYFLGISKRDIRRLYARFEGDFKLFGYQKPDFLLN
UniProt P51797: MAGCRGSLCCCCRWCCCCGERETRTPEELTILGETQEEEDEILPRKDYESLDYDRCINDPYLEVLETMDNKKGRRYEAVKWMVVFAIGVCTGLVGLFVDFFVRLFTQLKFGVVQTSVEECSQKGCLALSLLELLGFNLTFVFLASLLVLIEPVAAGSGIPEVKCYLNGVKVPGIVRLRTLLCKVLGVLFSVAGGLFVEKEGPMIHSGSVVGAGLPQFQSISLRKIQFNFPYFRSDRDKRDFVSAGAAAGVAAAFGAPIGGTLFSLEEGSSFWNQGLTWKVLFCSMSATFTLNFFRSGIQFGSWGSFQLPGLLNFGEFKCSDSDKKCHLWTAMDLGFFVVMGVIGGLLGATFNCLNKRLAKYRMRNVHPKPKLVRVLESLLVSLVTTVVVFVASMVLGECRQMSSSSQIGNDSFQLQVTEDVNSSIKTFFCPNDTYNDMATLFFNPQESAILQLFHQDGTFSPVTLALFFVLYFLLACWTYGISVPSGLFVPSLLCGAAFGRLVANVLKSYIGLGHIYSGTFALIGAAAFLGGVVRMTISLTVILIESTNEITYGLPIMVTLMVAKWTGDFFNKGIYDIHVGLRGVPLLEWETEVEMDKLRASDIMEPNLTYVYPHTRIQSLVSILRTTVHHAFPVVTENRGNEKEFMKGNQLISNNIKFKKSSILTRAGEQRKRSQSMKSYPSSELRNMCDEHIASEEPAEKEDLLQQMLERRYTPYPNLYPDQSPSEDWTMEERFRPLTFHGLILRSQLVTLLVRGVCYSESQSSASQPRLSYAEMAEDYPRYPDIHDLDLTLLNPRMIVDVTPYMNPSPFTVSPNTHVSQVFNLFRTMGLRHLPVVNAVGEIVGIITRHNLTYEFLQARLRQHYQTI
UniProt Q8WUD6: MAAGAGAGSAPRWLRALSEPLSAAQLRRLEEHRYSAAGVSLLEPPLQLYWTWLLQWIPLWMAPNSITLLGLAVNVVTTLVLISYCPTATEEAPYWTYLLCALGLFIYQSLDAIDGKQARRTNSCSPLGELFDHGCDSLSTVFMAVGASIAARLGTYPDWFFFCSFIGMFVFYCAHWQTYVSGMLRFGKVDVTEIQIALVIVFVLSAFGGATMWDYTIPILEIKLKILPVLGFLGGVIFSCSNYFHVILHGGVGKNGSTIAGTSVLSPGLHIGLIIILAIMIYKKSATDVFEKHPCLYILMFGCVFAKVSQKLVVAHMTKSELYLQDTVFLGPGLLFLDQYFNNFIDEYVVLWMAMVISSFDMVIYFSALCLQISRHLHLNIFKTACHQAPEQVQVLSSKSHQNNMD

Experiments:
Experiment in all cases: log2 fold change, soluble protein after heating vs DMSO (PISA); higher = thermal stabilisation; K562 lysate, 10 uM; active = over 0.2 and 3.5 SD of the protein, either way, in both replicates (recomputed)
tozasertib = compound: Cc1cc(Nc2cc(N3CCN(C)CC3)nc(Sc3ccc(NC(=O)C4CC4)cc3)n2)n[nH]1 [tozasertib]
Summary of the method: (§1)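 The values are log-two fold changes in thermal stability compared with solvent controls and come from duplicates. They were obtained by TMTpro 16plex LC-MS/MS, with channel sums equalised, on the supernatant after 21,000xg for 90 min. That supernatant came from crude K562 extract at 1 mg/mL protein treated with 10 μM compound for 30 min, heated for 3 min across 48°C-58°C, pooled and brought to 0.5% NP-40 at 4°C.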

crizotinib = compound: C[C@@H](Oc1cc(-c2cnn(C3CCNCC3)c2)cnc1N)c1c(Cl)ccc(F)c1Cl [crizotinib]
Summary of the method: as §1

[1] = compound: C[C@H](C1=CC=C(C=C1)C(=O)NC2=C3C=CNC3=NC=C2)N
Summary of the method: as §1

duvelisib = compound: C[C@H](Nc1ncnc2nc[nH]c12)c1cc2cccc(Cl)c2c(=O)n1-c1ccccc1 [duvelisib]
Summary of the method: as §1

gandotinib = compound: Cc1cc(Nc2cc(CN3CCOCC3)c3nc(C)c(Cc4ccc(Cl)cc4F)n3n2)n[nH]1 [gandotinib]
Summary of the method: as §1

doramapimod = compound: Cc1ccc(-n2nc(C(C)(C)C)cc2NC(=O)Nc2ccc(OCCN3CCOCC3)c3ccccc23)cc1 [doramapimod]
Summary of the method: as §1

[2] = compound: Cc1cccc(CC(=O)N2CCc3c2ccc(-c2cn(C)c4ncnc(N)c24)c3F)n1
Summary of the method: as §1

pictilisib = compound: CS(=O)(=O)N1CCN(Cc2cc3nc(-c4cccc5[nH]ncc45)nc(N4CCOCC4)c3s2)CC1 [pictilisib]
Summary of the method: as §1

bafetinib = compound: Cc1ccc(NC(=O)c2ccc(CN3CC[C@H](N(C)C)C3)c(C(F)(F)F)c2)cc1Nc1nccc(-c2cncnc2)n1 [bafetinib]
Summary of the method: as §1

lapatinib = compound: CS(=O)(=O)CCNCc1ccc(-c2ccc3ncnc(Nc4ccc(OCc5cccc(F)c5)c(Cl)c4)c3c2)o1 [lapatinib]
Summary of the method: as §1

Q: With CLDN7 (UniProt O95471) as the target, how does the log2 fold change (tozasertib) read?
A: inactive: 0.105

Q: CHD9 (UniProt Q3L8U1) was tested. Which log2 fold change (crizotinib) did it give?
A: inactive: 0.055

Q: And the log2 fold change [1]?
A: active: 1.37

Q: What about the log2 fold change (duvelisib) of the same target?
A: inactive: 0.106

Q: And the log2 fold change (gandotinib)?
A: inactive: -0.111

Q: And the log2 fold change (doramapimod)?
A: inactive: -0.057

Q: What about the log2 fold change [2] of the same target?
A: inactive: -0.27

Q: Which log2 fold change (crizotinib) does the source give for CHURC1-FNTB (UniProt B4DL54) here?
A: inactive: -0.061

Q: And the log2 fold change [1]?
A: inactive: -0.24

Q: And the log2 fold change (gandotinib)?
A: inactive: 0.07

Q: And the log2 fold change (tozasertib)?
A: inactive: 0.033

Q: What about the log2 fold change (doramapimod) of the same target?
A: inactive: 0.365

Q: What about the log2 fold change [2] of the same target?
A: inactive: 0.151

Q: How did the log2 fold change (pictilisib) turn out when CIC (UniProt I3L1Q4) was run?
A: inactive: 0.065

Q: What about the log2 fold change (bafetinib) of the same target?
A: inactive: 0.021

Q: Which log2 fold change (lapatinib) does the source give for CLN3 (UniProt Q13286) here?
A: inactive: 0.073

Q: And the log2 fold change (duvelisib)?
A: inactive: -0.025

Q: What about the log2 fold change (bafetinib) of the same target?
A: inactive: -0.164

Q: With CKS2 (UniProt P33552) as the target, how does the log2 fold change [1] read?
A: inactive: 0.089

Q: What about the log2 fold change (gandotinib) of the same target?
A: inactive: -0.169

Q: What about the log2 fold change (tozasertib) of the same target?
A: inactive: 0.158

Q: And the log2 fold change [2]?
A: inactive: -0.091

Q: How did the log2 fold change (crizotinib) turn out when CHCHD5 (UniProt Q9BSY4) was run?
A: inactive: 0.097

Q: What about the log2 fold change [1] of the same target?
A: inactive: 0.213

Q: And the log2 fold change (duvelisib)?
A: inactive: -0.066

Q: What about the log2 fold change (gandotinib) of the same target?
A: inactive: -0.088

Q: And the log2 fold change (doramapimod)?
A: inactive: -0.163

Q: And the log2 fold change [2]?
A: inactive: 0.063

Q: What does the source list for CLN5 (UniProt O75503)?
A: log2 fold change (lapatinib): inactive: 0.178; log2 fold change [1]: inactive: -0.1; log2 fold change (gandotinib): inactive: -0.026; log2 fold change (tozasertib): inactive: -0.068; log2 fold change (bafetinib): inactive: -0.06; log2 fold change [2]: inactive: -0.022

Q: CITED2 (UniProt Q99967) was tested. Which log2 fold change (duvelisib) did it give?
A: inactive: -0.016

Q: Which results are given for CHST10 (UniProt O43529)?
A: log2 fold change [1]: inactive: 0.004; log2 fold change (gandotinib): inactive: -0.038; log2 fold change [2]: inactive: 0.06

Q: CLCN6 isoform 5 (UniProt P51797) was tested. Which log2 fold change (lapatinib) did it give?
A: inactive: -0.048

Q: What about the log2 fold change (crizotinib) of the same target?
A: inactive: 0.03

Q: What about the log2 fold change (duvelisib) of the same target?
A: inactive: -0.008

Q: What about the log2 fold change (tozasertib) of the same target?
A: inactive: -0.023

Q: What about the log2 fold change (doramapimod) of the same target?
A: inactive: 0.039

Q: And the log2 fold change (bafetinib)?
A: inactive: -0.062

Q: CHPT1 (UniProt Q8WUD6) was tested. Which log2 fold change (pictilisib) did it give?
A: inactive: -0.012

Q: What about the log2 fold change [1] of the same target?
A: inactive: 0.259

Q: And the log2 fold change (gandotinib)?
A: inactive: -0.238

Q: What about the log2 fold change (bafetinib) of the same target?
A: inactive: 0.04

Q: And the log2 fold change [2]?
A: inactive: -0.166

Q: Which results are given for CHMP2A (UniProt M0R1T5)?
A: log2 fold change [1]: inactive: 0.128; log2 fold change (gandotinib): inactive: 0.033; log2 fold change [2]: inactive: -0.062

Q: For CLIP1, A0A3B3ITA2, which log2 fold change (crizotinib) is on record?
A: inactive: -0.033

Q: What about the log2 fold change [1] of the same target?
A: inactive: -0.222

Q: And the log2 fold change (gandotinib)?
A: inactive: 0.55

Q: What about the log2 fold change (doramapimod) of the same target?
A: inactive: -0.138

Q: What about the log2 fold change [2] of the same target?
A: inactive: 0.269
